From patent US20200129532A1

By UniProt entry, the sequences of proteins in these tests, tags left out.
UniProt Q9NPI1: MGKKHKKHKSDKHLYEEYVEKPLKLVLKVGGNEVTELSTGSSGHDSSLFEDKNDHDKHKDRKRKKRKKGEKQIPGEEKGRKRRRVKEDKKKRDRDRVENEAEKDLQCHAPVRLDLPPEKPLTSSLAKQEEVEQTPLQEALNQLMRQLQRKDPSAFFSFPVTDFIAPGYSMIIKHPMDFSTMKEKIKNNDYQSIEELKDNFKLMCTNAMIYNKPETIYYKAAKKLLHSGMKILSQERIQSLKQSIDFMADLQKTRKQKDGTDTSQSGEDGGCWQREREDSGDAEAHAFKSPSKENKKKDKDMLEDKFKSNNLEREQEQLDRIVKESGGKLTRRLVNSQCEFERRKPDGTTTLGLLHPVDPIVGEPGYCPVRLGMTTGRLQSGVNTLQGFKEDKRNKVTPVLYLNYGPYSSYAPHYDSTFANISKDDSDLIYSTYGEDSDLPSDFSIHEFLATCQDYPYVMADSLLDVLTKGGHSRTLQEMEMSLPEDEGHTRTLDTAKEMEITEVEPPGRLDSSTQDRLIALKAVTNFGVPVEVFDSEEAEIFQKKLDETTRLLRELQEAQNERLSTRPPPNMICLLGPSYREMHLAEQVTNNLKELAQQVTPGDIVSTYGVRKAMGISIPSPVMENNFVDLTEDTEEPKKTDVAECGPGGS
UniProt Q9H8M2: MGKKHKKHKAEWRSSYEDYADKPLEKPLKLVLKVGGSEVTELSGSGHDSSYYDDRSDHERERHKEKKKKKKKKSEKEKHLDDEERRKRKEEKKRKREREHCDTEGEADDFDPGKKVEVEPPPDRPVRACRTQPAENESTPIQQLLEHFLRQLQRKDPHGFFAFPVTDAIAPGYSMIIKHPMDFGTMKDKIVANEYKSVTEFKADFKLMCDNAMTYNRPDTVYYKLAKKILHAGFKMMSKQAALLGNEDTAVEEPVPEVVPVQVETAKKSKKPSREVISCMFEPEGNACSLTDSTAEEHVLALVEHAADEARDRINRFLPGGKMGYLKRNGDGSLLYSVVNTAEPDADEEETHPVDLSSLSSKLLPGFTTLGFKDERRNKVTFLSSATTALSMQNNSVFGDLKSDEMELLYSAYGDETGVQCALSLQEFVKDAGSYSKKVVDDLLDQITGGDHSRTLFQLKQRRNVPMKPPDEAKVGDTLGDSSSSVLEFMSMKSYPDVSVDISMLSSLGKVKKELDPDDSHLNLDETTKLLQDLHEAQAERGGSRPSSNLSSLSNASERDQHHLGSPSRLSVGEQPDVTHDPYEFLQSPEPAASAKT

Target: T1, HA-tagged VDR (vitamin D receptor), wild type (human) (UniProt P11473)
T1 sequence (acetylated lysine at 91 (K91Ac), looked up): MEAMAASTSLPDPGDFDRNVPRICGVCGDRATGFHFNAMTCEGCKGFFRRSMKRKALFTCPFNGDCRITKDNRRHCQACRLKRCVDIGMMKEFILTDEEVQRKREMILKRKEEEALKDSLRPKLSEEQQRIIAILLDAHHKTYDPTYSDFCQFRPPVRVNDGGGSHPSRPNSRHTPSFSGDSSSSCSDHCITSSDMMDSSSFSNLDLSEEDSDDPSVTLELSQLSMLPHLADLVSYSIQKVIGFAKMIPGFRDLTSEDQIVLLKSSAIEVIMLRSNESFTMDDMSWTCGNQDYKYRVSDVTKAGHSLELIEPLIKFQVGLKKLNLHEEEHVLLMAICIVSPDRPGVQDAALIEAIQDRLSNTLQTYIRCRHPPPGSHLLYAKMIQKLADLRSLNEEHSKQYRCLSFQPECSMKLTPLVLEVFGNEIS
Test: immunoprecipitation of HA-VDR from human beta-like cells, mass spectrometry (FIG. 4A)

binding | Substance
binds | endogenous BRD7 (human beta-like cells) (from UniProt Q9NPI1 1-651)
binds | endogenous bromodomain-containing protein 9 (BRD9) (from UniProt Q9H8M2 1-597)

No constants are given. Whether binding was seen depends on the method and setting. Binding seen in cells or lysates may run through a third protein. A yes stands for co-enrichment or nearness to the bait. Other partners may have been found. Sequences can lack the tags named with a protein.
